Data as given in PubChem BioAssay AID504791 (Drosophila RNAi Screening Center, 2011)
The deposit covers about 23,000 reagents; below is a random part of those with a known target gene and a result. Over the whole deposit, 199 (0.86%) got an active call. 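Plate-scaled ratios behind the calls are not deposited; printed light signals are raw; many rows marked increased or decreased are still called inactive.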 Unmarked entries are inactive. Not given: the direction of the score.

- Test: 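Genes of the fly required for silencing by miRNA, siRNA or endo-siRNA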 (primary screen)
- Cell system: Drosophila S2-derived reporter cells
- Knock-down reagent: long dsRNA against Drosophila genes, about 150-250 ng dsRNA per well (siRNA assay); about 80-120 ng (miRNA assay)
- Timing: about 5 days (siRNA assay); about 4 days (miRNA assay)
- Challenge: copper sulfate induction of reporters: 25 µM (siRNA assay); 200 mM stated (miRNA assay), 1-2 days before reading
- Measured: 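Dual luciferase assay: Renilla to firefly signal ratio in each well, scaled to the mean ratio of its plate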
- Call rule: 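a well was a first-pass pick when its plate-scaled ratio rose above 1.5 (siRNA assay) or 1.6 (miRNA assay), or dropped below 0.6; a gene counted only if two separate dsRNAs agreed on retest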

para [SID104198933] scored stable assay Renilla, run 1 (luminescence) = 4792; stable assay firefly, run 1 (luminescence) = 3.82e5.
Silencing of para [SID104200152] came out at: stable assay Renilla, run 1 (luminescence) = 6266; stable assay firefly, run 1 (luminescence) = 5.99e5.
For Fer1HCH [SID104196463], the values are stable assay Renilla, run 1 (luminescence) = 8482; stable assay firefly, run 1 (luminescence) = 3.59e5.
strat [SID104182861] showed stable assay Renilla, run 1 (luminescence) = 6795; stable assay firefly, run 1 (luminescence) = 4.36e5.
After knock-down of tim [SID104180633], the screen gave stable assay Renilla, run 1 (luminescence) = 23592; stable assay firefly, run 1 (luminescence) = 3.78e5.
Against ifc [SID104183341], the values are stable assay Renilla, run 1 (luminescence) = 58875; stable assay firefly, run 1 (luminescence) = 2.33e5.
Knock-down of Ptp99A [SID104193725] gave: stable assay Renilla, run 1 (luminescence) = 5464; stable assay firefly, run 1 (luminescence) = 3.76e5.
For Ptp99A [SID104193731] the deposit lists stable assay Renilla, run 1 (luminescence) = 4927; stable assay firefly, run 1 (luminescence) = 3.44e5.
Ptp99A [SID104194111] showed stable assay Renilla, run 1 (luminescence) = 6307; stable assay firefly, run 1 (luminescence) = 3.77e5.
For Ptp99A [SID104194112], the entry reads stable assay Renilla, run 1 (luminescence) = 6790; stable assay firefly, run 1 (luminescence) = 6.00e5.
For Ptp99A [SID104196595], the values are stable assay Renilla, run 1 (luminescence) = 7167; stable assay firefly, run 1 (luminescence) = 5.02e5.
Silencing of Ptp99A [SID104201682] resulted in: stable assay Renilla, run 1 (luminescence) = 8034; stable assay firefly, run 1 (luminescence) = 6.59e5.
Knock-down of Ptp99A [SID104201933] resulted in: stable assay Renilla, run 1 (luminescence) = 2595; stable assay firefly, run 1 (luminescence) = 2.86e5.
Depletion of Ptp99A [SID104202390] came out at: stable assay Renilla, run 1 (luminescence) = 4023; stable assay firefly, run 1 (luminescence) = 2.56e5.
With knock-down of PIG-C [SID104188033] the results were stable assay Renilla, run 1 (luminescence) = 5943; stable assay firefly, run 1 (luminescence) = 3.30e5.
ringer [SID104190247] gave stable assay Renilla, run 1 (luminescence) = 7674; stable assay firefly, run 1 (luminescence) = 4.63e5.
rg [SID104197169] gave stable assay Renilla, run 1 (luminescence) = 8331; stable assay firefly, run 1 (luminescence) = 4.18e5.
With knock-down of rg [SID104197518], the record shows stable assay Renilla, run 1 (luminescence) = 8663; stable assay firefly, run 1 (luminescence) = 6.48e5.
Depletion of rg [SID104197841] resulted in: stable assay Renilla, run 1 (luminescence) = 5623; stable assay firefly, run 1 (luminescence) = 3.64e5.
Depletion of wun [SID104187511] resulted in: stable assay Renilla, run 1 (luminescence) = 6814; stable assay firefly, run 1 (luminescence) = 4.33e5.
CG7099 [SID104182798] gave stable assay Renilla, run 1 (luminescence) = 5932; stable assay firefly, run 1 (luminescence) = 1.21e6.
Knock-down of Npc1a [SID104183170] came out at: stable assay Renilla, run 1 (luminescence) = 6882; stable assay firefly, run 1 (luminescence) = 4.61e5.
After knock-down of CG30479 [SID104186527], the screen gave stable assay Renilla, run 1 (luminescence) = 7035; stable assay firefly, run 1 (luminescence) = 4.17e5.
Depletion of Nagk [SID104195786] gave: stable assay Renilla, run 1 (luminescence) = 8424; stable assay firefly, run 1 (luminescence) = 4.25e5.
With knock-down of tweek [SID104182225], the record shows stable assay Renilla, run 1 (luminescence) = 7331; stable assay firefly, run 1 (luminescence) = 4.31e5.
After knock-down of tweek [SID104182226], the record shows stable assay Renilla, run 1 (luminescence) = 7126; stable assay firefly, run 1 (luminescence) = 3.81e5.
Silencing of tweek [SID104182577] resulted in: stable assay Renilla, run 1 (luminescence) = 8676; stable assay firefly, run 1 (luminescence) = 2.07e6.
For tweek [SID104202490], the values are stable assay Renilla, run 1 (luminescence) = 4608; stable assay firefly, run 1 (luminescence) = 2.78e5.

Limited to “stable assay Renilla, run 1 (luminescence)”, for 3 of the entries above:
para [SID104200152]	6266
Fer1HCH [SID104196463]	8482
strat [SID104182861]	6795
